B1: CD86: immobilised reference protein in flow cell 1 (protein)
chain: APLKIQAYFNETADLPCQFANSQNQSLSELVVFWQDQENLVLNEVYLGKEKFDSVHSKYMGRTSFDSDSWTLRLHNLQIKDKGLYQCIIHHKKPTGMIRIHQMNSELSVLANFSQPEIVPISNITENVYINLTCSSIHGYPEPKKMSVLLRTKNSTIEYDGVMQKSQDNVTELYDVSISLSVSFPDVTSNMTIFCILETDKTRLLSSPFSIELEDPQPPPDHIPWITAVLPTVIICVMVFCLILWKWKKKKRPRNSYKCGTNTMEREESEQTKKREKIHIPERSDEAQRVFKSSKTSSCDKSDTCF

Key:
OT-I TCR = assay: SPR steady-state binding of soluble OT-I TCR to immobilised pMHC (H-2Kb) at 37 °C: apparent and active KD; set-up: species or system mouse; details: log of the average revised KD
[1] = test system: pMHC-specific B2M or Y3 antibody; assay: Fraction of active pMHC: binding of conformationally sensitive antibody (B2M or Y3) and ratio of TCR Bmax to pMHC immobilisation level (SPR); details: source data of Fig. 2, BmaxAB-ImmL_ratio_average.csv

| Molecule | log(Revised 3D KD) (OT-I TCR) | BmaxAB/ImmL ratio, average [1] |
| --- | --- | --- |
| EIINFEKL [Peptide E1] | 3.561 |  |
| RGYNYEKL [V-OVA, its pMHC is not correctly folded] |  | 0.04539 |
| SIIRFEKL [Peptide R4] | 3.705 |  |
| B1 |  | 0.0577 |

Source: publication PMC12811252 (The EMBO Journal, 2025)
